# According to PubChem BioAssay AID328 (DTP/NCI, 2004):
# The list does not hold the whole screen: it gathers tests that were run many times, whatever their T/C, doses with no T/C, and many T/C values between a quarter and a half above the control. Other doses and runs of a compound stand elsewhere. T/C gives the treated animals as a percentage of the vehicle group. Some entries give survivors of the animals treated and no T/C: the source files T/C as zero there, which appears to mark a toxic dose or a test without result, not a measured value. Some survivor counts are full or nearly so, which does not show that the dose was tolerated: survival well below the control is almost never listed, so the zero probably covers shortened survival too. Counts of survivors are from the toxicity check (mostly the fifth day) where no day follows; animals may have died later. Schedules are NCI's codes, taken here to give the interval after Q, in days (D) or hours (H), and the number of doses after X. Some entries were tested several times; the results are listed from low to high. Where survival is the endpoint, this PubChem deposit counts one and a half times the control or more as active, and values a quarter to a half above the control carry no call in these data; other NCI protocols may use other cut-offs. Some T/C values are followed by the survivors on the day toxicity was checked, most often the fifth; without a count, all were alive then.
# Tested on: BDF1 mice, P388 leukemia ip, median survival T/C
# Experiment: NCI In Vivo Anticancer Drug Screen. Data for tumor model P388 Leukemia (intraperitoneal) in B6D2F1 (BDF1) mice
# Settings: T/C endpoint: median survival time, higher T/C = longer survival
# Experimental: The antitumor activity of compounds was measured in mice bearing transplantable tumors. Survival or tumor size were measured and the results are expressed as the measurement made in the treated group (T) divided by the measurement made in the vehicle treated control group (C). The tumor model used in this assay is P388 Leukemia (intraperitoneal) in B6D2F1 (BDF1) mice
# [1] = dose: 100.0 mg/kg/injection, schedule: Q01DX009 (ip), vehicle: saline with Tween-80
# [2] = dose: 50.0 mg/kg/injection, schedule: Q01DX009 (ip), vehicle: saline
# [3] = dose: 100.0 mg/kg/injection, schedule: Q01DX009 (ip), vehicle: saline
# [4] = dose: 100.0 mg/kg/injection, schedule: Q04DX003 (ip), vehicle: saline
# [5] = dose: 200.0 mg/kg/injection, schedule: Q04DX003 (ip), vehicle: saline
# [6] = dose: 400.0 mg/kg/injection, schedule: Q04DX003 (ip), vehicle: saline with Tween-80
# [7] = dose: 400.0 mg/kg/injection, schedule: Q04DX003 (ip), vehicle: saline
smiles,measurement,setting,value
CC(=O)O[C@@H]1c2c(c3c(=O)c4cccc(O)c4c(=O)c=3c2=[N+]=[N-])[C@H](OC(C)=O)[C@@H](OC(C)=O)[C@]1(C)O,survivor count,"dose: 12.0 mg/kg/injection, schedule: Q01DX009 (ip), vehicle: Klucel (hydroxypropylcellulose) (HPC)",2 of 3
CN=NNCc1ccccc1,T/C,"dose: 6.25 mg/kg/injection, schedule: Q01DX005 (ip), vehicle: saline",137 % of control [4 of 5 alive]
N#CSc1ccc(Nc2ccc(SC#N)cc2)cc1,T/C,"dose: 55.0 mg/kg/injection, schedule: Q01DX009 (ip), vehicle: Klucel (hydroxypropylcellulose) (HPC)",133 % of control
same,T/C,"dose: 80.0 mg/kg/injection, schedule: Q01DX009 (ip), vehicle: Klucel (hydroxypropylcellulose) (HPC)",133 % of control
O=[N+]([O-])C=C(S)S,survivor count,"dose: 200.0 mg/kg/injection, schedule: Q01DX009 (ip), vehicle: water",0 of 6
Cc1c2ccncc2c(C)c2c1[nH]c1ccccc12,T/C,"dose: 2.5 mg/kg/injection, schedule: Q01DX010 (ip), vehicle: saline",127 % of control
same,T/C,"dose: 5.0 mg/kg/injection, schedule: Q01DX010 (ip), vehicle: saline",145 % of control
same,T/C,"dose: 13.0 mg/kg/injection, schedule: Q04DX003 (ip), vehicle: water",145 % of control
same,survivor count,"dose: 30.0 mg/kg/injection, schedule: Q01DX009 (ip), vehicle: water",10 of 10
same,survivor count,"dose: 60.0 mg/kg/injection, schedule: Q01DX009 (ip), vehicle: water",10 of 10
same,T/C,"dose: 66.7 mg/kg/injection, schedule: Q04DX003 (ip), vehicle: clinical formulation",140 % of control
same,survivor count,"dose: 80.0 mg/kg/injection, schedule: Q01DX010 (ip), vehicle: saline",6 of 6
same,survivor count,"dose: 100.0 mg/kg/injection, schedule: Q04DX003 (ip), vehicle: water",8 of 8
same,survivor count,"dose: 120.0 mg/kg/injection, schedule: Q01DX009 (ip), vehicle: water",10 of 10
same,survivor count,"dose: 160.0 mg/kg/injection, schedule: Q01DX010 (ip), vehicle: saline",6 of 6
CC1CC(=O)C(O)C2(C)C1CC1OC(=O)C(OC(=O)c3ccccc3)C3C(C)C(O)C4(O)OCC13C42 (stereo not given),T/C,"dose: 0.5 mg/kg/injection, schedule: Q01DX009 (ip), vehicle: saline with Tween-80",127 % of control
same,T/C,"dose: 32.0 mg/kg/injection, schedule: Q01DX009 (ip), vehicle: saline with Tween-80",138 % of control
Cn1ncc2c(NCCc3ccccc3)ncnc21,survivor count,[1],3 of 6
COC(=O)C[CH2][Pb]([c]1ccccc1)([c]1ccccc1)[c]1ccccc1,survivor count,[1],1 of 3
O=C1/C(=N/O)Cc2ccccc21,T/C,"dose: 0.4 mg/kg/injection, schedule: Q01DX009 (ip), vehicle: water, evaluated on day 20",148 % of control
same,T/C,"dose: 0.4 mg/kg/injection, schedule: Q01DX009 (ip), vehicle: water, evaluated on day 21",134 % of control
same,T/C,"dose: 0.8 mg/kg/injection, schedule: Q01DX009 (ip), vehicle: water",125 % of control [5 of 6 alive]
same,T/C,"dose: 1.2 mg/kg/injection, schedule: Q01DX009 (ip), vehicle: water",125 % of control
Cc1ccc(C2(C#N)CCCCC2)cc1,T/C,[1],125 % of control
CC1OC(OC2CC(O)(C(=O)CO)Cc3c(O)c4c(c(O)c32)C(=O)c2ccccc2C4=O)CC(N)C1O (stereo not given),T/C,"dose: 1000.0 micrograms/kg/injection, schedule: Q04DX003 (ip), vehicle: water",129 % of control
N=c1ccc2nc3ccc(N)cc3sc-2c1,T/C,"dose: 25.0 mg/kg/injection, schedule: Q01DX009 (ip), vehicle: saline",140 % of control
same,T/C,[2],125 % of control
same,survivor count,[3],4 of 6
same,T/C,[4],131 % of control
same,survivor count,[5],6 of 6
c1ccc(C2CCCCCC2)cc1,T/C,"dose: 66.0 mg/kg/injection, schedule: Q01DX009 (ip), vehicle: saline",145 % of control
same,T/C,[3],130 % of control
same,survivor count,"dose: 400.0 mg/kg/injection, schedule: Q01DX009 (ip), vehicle: saline",6 of 6
C/C(=N/N=C(N)N)c1ccc(NC(=O)Nc2ccc(/C(C)=N/N=C(N)N)cc2)cc1,T/C,"dose: 25.0 mg/kg/injection, schedule: Q01DX009 (ip), vehicle: saline with Tween-80",136 % of control
same,T/C,"dose: 50.0 mg/kg/injection, schedule: Q01DX009 (ip), vehicle: saline with Tween-80",140 % of control
CCOC(=O)NCCCCCCNC(=O)OCC,survivor count,"dose: 100.0 mg/kg/injection, schedule: Q04DX003 (ip), vehicle: saline with Tween-80",6 of 6
same,survivor count,[6],5 of 6
CCCCOCN(COCCCC)C(C)(C)C,survivor count,"dose: 400.0 mg/kg/injection, schedule: Q01DX001 (ip), vehicle: saline",0 of 6
Cc1c2c(cc3c1[nH]c1ccccc13)C(c1ccc(Cl)cc1)=NCC2,survivor count,"dose: 200.0 mg/kg/injection, schedule: Q01DX009 (ip), vehicle: Klucel (hydroxypropylcellulose) (HPC)",6 of 6
same,survivor count,"dose: 400.0 mg/kg/injection, schedule: Q01DX009 (ip), vehicle: Klucel (hydroxypropylcellulose) (HPC)",3 of 6
CCC(C)P(=O)(N1CC1C)N1CC1C (stereo not given),survivor count,[4],6 of 6
same,survivor count,[5],0 of 6
same,survivor count,[7],0 of 6
COc1ccc(C=C2C(=O)N(C)C(=O)N(C)C2=O)cc1,T/C,"dose: 100.0 mg/kg/injection, schedule: Q01DX009 (ip), vehicle: other",128 % of control
same,T/C,"dose: 200.0 mg/kg/injection, schedule: Q01DX009 (ip), vehicle: other",135 % of control
O=C1C=C(c2ccccc2)C(O)(c2ccccc2)C1 (stereo not given),survivor count,"dose: 400.0 mg/kg/injection, schedule: Q01DX009 (ip), vehicle: saline with Tween-80",0 of 6
CCCCCCCCCCCCN1CCCC(O)C1 (stereo not given),survivor count,[1],0 of 6
same,survivor count,"dose: 200.0 mg/kg/injection, schedule: Q04DX003 (ip), vehicle: saline with Tween-80",3 of 6
CCOCCOCCOc1nc(F)c(Cl)cc1Cl,T/C,[6],129 % of control
Cc1ccc(C(SCC(N)C(=O)O)(c2ccc(C)cc2)c2ccc(C)cc2)cc1 (stereo not given),T/C,"dose: 45.0 mg/kg/injection, schedule: Q04DX003 (ip), vehicle: Klucel (hydroxypropylcellulose) (HPC)",136 % of control
CCN(CC)CCNc1ccc([N+](=O)[O-])c2sc3ccccc3c(=O)c12,survivor count,"dose: 200.0 mg/kg/injection, schedule: Q01DX009 (ip), vehicle: saline sonified",6 of 6
CCN(CC)Cc1cc(Nc2c3ccccc3nc3cc(Cl)ccc23)ccc1O,T/C,[2],145 % of control
C[n+]1c(-c2ccc(Cl)c(Cl)c2)c2cc(N)ccc2c2ccccc21,T/C,"dose: 3.12 mg/kg/injection, schedule: Q01DX009 (ip), vehicle: water",145 % of control [5 of 6 alive]
same,T/C,"dose: 6.25 mg/kg/injection, schedule: Q01DX009 (ip), vehicle: water",133 % of control
Clc1c(CBr)c(Cl)c(CBr)c(Cl)c1CBr,survivor count,"dose: 50.0 mg/kg/injection, schedule: Q01DX009 (ip), vehicle: Klucel (hydroxypropylcellulose) (HPC)",2 of 6
COc1cc(Cc2nccc3cc(OC)c(OC)cc23)c(C(C)=O)c(OC)c1,T/C,"dose: 5.0 mg/kg/injection, schedule: Q01DX009 (ip), vehicle: saline",131 and 140 % of control
same,T/C,"dose: 10.0 mg/kg/injection, schedule: Q01DX009 (ip), vehicle: saline",136 % of control
same,T/C,"dose: 20.0 mg/kg/injection, schedule: Q01DX009 (ip), vehicle: saline",145 % of control
same,survivor count,"dose: 40.0 mg/kg/injection, schedule: Q01DX009 (ip), vehicle: saline",6 of 6
same,T/C,"dose: 50.0 mg/kg/injection, schedule: Q04DX003 (ip), vehicle: saline",148 % of control
same,survivor count,"dose: 160.0 mg/kg/injection, schedule: Q01DX009 (ip), vehicle: saline",4 of 6 and 5 of 6
same,T/C,[5],127 % of control [5 of 6 alive]
same,survivor count,[7],4 of 6
C[n+]1ccc(/C=C/c2ccc(Cl)c(Cl)c2)cc1,survivor count,"dose: 6.0 mg/kg/injection, schedule: Q01DX009 (ip), vehicle: Klucel (hydroxypropylcellulose) (HPC)",5 of 6
same,survivor count,"dose: 12.0 mg/kg/injection, schedule: Q04DX003 (ip), vehicle: Klucel (hydroxypropylcellulose) (HPC)",4 of 6
